T1: MpkC:GFP (Aspergillus fumigatus) (UniProt Q4WUN7)
T1 sequence: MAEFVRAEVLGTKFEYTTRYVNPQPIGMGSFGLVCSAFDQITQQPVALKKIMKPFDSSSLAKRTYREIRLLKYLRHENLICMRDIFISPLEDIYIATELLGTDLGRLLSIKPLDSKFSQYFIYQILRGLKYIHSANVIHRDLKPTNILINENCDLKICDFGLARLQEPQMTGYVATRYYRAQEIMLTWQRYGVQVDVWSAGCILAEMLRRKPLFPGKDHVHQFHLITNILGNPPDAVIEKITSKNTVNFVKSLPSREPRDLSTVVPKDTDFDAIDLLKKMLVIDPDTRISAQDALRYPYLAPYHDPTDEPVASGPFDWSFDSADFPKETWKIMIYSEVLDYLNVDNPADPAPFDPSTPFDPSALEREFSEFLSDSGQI

The chains behind the UniProt entries cited, without tags or fusion partners. Where a name states a change or a piece, a line headed by the entry shows the natural chain unless it says otherwise.
UniProt Q4WLT4: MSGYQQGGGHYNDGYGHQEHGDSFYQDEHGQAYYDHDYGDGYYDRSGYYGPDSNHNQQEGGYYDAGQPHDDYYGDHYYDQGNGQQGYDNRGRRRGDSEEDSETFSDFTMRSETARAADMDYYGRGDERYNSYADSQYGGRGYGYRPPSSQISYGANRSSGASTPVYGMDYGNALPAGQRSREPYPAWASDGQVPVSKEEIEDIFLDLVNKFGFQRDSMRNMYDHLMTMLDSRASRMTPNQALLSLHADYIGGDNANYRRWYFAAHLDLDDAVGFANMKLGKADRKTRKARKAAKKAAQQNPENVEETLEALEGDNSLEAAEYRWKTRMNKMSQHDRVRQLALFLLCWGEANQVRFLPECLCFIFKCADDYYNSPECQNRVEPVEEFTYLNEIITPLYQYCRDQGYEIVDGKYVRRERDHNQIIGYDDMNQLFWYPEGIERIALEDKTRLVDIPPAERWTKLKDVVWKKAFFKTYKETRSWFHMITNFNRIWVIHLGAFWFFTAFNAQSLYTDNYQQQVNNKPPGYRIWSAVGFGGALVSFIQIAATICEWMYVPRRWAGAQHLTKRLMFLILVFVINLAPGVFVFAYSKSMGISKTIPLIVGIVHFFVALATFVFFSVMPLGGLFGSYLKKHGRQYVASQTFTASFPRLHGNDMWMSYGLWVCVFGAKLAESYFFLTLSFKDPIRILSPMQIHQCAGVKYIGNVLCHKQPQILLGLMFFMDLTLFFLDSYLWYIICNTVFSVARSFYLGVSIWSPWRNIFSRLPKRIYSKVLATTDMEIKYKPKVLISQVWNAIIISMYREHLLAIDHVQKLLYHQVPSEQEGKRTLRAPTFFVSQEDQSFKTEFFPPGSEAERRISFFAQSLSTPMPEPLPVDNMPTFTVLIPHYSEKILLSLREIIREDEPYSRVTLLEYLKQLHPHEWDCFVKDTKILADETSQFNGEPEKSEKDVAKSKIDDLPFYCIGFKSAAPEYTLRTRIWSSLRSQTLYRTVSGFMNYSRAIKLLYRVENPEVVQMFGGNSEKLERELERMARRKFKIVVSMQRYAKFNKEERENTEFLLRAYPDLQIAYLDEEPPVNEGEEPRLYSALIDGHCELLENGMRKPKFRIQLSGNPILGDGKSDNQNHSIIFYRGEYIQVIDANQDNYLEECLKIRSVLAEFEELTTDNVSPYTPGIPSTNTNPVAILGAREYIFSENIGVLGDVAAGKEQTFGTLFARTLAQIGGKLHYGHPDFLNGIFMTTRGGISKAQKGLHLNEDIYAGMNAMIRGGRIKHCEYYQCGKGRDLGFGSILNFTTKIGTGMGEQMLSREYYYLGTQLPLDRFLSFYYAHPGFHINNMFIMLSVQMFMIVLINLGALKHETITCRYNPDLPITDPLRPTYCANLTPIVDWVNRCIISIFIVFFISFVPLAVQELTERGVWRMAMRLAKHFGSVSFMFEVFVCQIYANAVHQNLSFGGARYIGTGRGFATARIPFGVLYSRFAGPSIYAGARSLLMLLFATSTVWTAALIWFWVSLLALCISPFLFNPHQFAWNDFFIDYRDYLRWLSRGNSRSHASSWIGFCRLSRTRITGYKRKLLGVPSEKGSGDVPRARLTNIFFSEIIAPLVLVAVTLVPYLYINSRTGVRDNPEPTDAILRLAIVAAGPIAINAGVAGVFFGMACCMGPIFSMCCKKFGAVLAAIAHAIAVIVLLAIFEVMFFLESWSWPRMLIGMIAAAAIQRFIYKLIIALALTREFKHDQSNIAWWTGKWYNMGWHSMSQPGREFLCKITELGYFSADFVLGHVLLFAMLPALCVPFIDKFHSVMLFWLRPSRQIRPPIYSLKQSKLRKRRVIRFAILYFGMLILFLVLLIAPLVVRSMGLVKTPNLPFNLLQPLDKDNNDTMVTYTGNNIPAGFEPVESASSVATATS
UniProt Q4WW00: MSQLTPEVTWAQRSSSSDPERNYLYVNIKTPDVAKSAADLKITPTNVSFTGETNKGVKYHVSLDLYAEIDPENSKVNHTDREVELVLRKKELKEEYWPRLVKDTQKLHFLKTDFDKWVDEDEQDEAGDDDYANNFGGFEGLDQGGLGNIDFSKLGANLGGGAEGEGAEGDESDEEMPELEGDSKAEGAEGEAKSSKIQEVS
UniProt Q4WJA0: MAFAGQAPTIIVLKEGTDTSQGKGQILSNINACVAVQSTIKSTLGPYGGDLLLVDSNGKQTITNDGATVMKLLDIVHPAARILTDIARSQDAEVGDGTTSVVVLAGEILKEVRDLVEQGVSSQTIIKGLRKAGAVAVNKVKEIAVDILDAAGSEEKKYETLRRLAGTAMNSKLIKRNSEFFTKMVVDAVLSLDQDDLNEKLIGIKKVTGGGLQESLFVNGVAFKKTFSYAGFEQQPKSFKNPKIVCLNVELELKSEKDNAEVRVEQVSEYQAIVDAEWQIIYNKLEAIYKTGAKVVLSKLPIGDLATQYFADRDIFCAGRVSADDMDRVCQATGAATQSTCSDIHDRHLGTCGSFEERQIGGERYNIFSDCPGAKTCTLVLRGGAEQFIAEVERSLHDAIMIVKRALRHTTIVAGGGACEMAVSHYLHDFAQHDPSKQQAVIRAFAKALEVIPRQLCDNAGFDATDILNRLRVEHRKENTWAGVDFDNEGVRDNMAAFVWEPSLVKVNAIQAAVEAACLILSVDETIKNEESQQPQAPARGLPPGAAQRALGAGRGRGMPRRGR
UniProt Q4WJF0: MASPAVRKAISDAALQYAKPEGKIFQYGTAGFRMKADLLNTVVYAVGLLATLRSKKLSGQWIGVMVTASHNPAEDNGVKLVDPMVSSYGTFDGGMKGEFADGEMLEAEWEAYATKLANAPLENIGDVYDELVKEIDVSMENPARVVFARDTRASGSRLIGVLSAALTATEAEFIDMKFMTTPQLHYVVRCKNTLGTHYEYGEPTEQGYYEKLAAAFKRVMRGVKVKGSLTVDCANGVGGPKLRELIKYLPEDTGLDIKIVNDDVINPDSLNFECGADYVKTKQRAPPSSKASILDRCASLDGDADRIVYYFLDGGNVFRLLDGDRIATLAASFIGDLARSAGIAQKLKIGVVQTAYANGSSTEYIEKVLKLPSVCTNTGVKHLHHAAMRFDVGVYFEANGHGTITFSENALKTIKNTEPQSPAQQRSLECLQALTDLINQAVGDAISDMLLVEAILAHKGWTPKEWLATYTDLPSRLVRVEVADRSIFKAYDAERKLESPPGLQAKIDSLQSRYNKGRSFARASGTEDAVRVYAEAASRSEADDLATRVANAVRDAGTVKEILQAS
UniProt Q4WYW9: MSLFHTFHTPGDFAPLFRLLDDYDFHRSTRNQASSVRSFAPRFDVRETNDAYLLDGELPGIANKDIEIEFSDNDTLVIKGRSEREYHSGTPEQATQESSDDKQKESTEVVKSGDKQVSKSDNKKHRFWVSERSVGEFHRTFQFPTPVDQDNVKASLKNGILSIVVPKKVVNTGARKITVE
UniProt Q4WZR6: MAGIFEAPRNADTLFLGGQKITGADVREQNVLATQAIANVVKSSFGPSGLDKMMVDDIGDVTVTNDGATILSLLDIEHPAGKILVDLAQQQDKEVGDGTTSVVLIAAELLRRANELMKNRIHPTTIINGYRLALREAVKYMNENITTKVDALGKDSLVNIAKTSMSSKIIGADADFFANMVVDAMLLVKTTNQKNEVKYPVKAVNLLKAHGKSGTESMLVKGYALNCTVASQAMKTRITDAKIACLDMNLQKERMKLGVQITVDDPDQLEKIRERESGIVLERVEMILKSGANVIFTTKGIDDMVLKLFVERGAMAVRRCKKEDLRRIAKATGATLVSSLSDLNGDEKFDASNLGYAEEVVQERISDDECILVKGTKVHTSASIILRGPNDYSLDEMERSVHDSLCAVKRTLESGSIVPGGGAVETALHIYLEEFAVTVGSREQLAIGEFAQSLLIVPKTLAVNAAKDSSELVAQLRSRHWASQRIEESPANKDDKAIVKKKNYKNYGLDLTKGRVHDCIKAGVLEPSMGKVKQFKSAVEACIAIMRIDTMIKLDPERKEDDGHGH

B1: Sun1 (enzyme, UniProt Q4WGL5 20-414)
chain: QHHHQHRHHQHKREDVVESSATVVQYELDGKPISLKQVCAGLADNTLKFANNDHPTGICDNLSSAAAPASTPEVTSAFAPAQFIELSSVVTSATPTSASSSETVQTPAASSSSASSSSTATGLDADFPDGELDCSTFPSEYGAIPLDYLKLGGWSGIQYVSYAGNFINDIVTAVAGDTCKDGAMCSYACPPGYQKSQWPSTQGATGQSVGGIECRNGKLHLTNPSLSKKLCIPGVGGVHVQNTLGETVAVCRTDYPGTESETIPIGLGGNDLQPLTCPDGETYYKWQGKTTSAQYYVNPKGVTPEKGCQWGDGTQPIGNWAPVNLGVGLNKGKWLSIFQNSPTTSEKLDFNIKIKGDNLSGSCKYENGVFYSETGSSSSGCTVQVMSGDATFVFY
B2: NsdD (protein, UniProt Q4WYQ4 1-493)
chain: MGSLEATHRQRDHLPTISFFTKDGSGYTSRNSTVSSPTPLVSPTTMYPSQPSPYSYQPSAASAPPQPGYISPPESRRALEEEKEKQLQPQRQSLPSIHEALRNDSPLPYPAPPTSGPLPQAHPHPPHALVGRSAGDGPAGPPNPFSNGAPAGPYMREPAYSQLQTEASRSSLASITTQESRNPSLQSLNSSKSPTHSAKTGLTSIAGSQTGSGYEYSAPTSAGSIASPNGYTAYSQPFTFQSQPPPNAPTYPLAHHDTRPYAATPWKPGAPEPPRVEELKNGLAGRPAVPVQPQGDSAKRHLDIYEVETSLNEIVEVSTRTLDFSRHYATRAHQTQRSGPMLGTLPPLHEIEDMINLQRRNQDALMRLRTAVLNQEHALAEQMAQRKAFSAGGVHDSDHMAMYQEEFKGSGGFAGPDTKKRRGKAAPPGRCHSCNRAETPEWRRGPDGARTLCNACGLHYAKLTRKMGASKAASLGSNLKPKAALDPTPPGTR

No constants are given. Whether binding was seen depends on the method and setting. Binding seen in cells or lysates may run through a third protein. A yes stands for co-enrichment or nearness to the bait. Other partners may have been found. Sequences can lack the tags named with a protein.

This assay deals with T1, MpkC:GFP (Aspergillus fumigatus). The experiment in a line: affinity purification with mass spectrometry; magnetic GFP-trap beads with crude extracts of SakA:GFP or MpkC:GFP cultures grown 24 h and exposed to sorbitol 1.0 M (10, 30, 60 min) or CR 300 ug/ml (5, 15, 30, 60 min); B250 buffer (250 mM NaCl, 100 mM Tris-HCl pH 7.5, 10% glycerol, 1 mM EDTA, 0.1% NP-40), 4 C, 3 h; proteins also found with the wild-type control removed; LC-MS/MS.
Fks1 (from UniProt Q4WLT4) (enzyme): the binding result is listed as “binds”. Consider Afu5g13920 (from UniProt Q4WW00), for which the binding result is “binds”. As to Afu1g06710 (from UniProt Q4WJA0), the binding entry is given as “binds”. Turning to Agm1 (from UniProt Q4WJF0) (enzyme), the binding result is reported as “binds”. Next, Afu1g01740: “binds”. For Afu3g14540 (from UniProt Q4WYW9) the value was “binds”. Afu6g07540: the binding entry is “binds”. As to Afu2g16020 (from UniProt Q4WZR6), the binding entry is recorded as “binds”.

With Afu2g02320, the binding result is on record as “binds”. In the case of Afu7g01860, the binding result is listed as “binds”.

As for B1, the binding entry is on record as “binds”. Consider B2, for which the binding entry is recorded as “binds”.

The record behind these values is paper PMC6514138.
